Binding data for one substance are collected here from PMC11881899.

Sequences of proteins named here, by UniProt entry; tags and fusion partners are left off.
UniProt Q8IXH7: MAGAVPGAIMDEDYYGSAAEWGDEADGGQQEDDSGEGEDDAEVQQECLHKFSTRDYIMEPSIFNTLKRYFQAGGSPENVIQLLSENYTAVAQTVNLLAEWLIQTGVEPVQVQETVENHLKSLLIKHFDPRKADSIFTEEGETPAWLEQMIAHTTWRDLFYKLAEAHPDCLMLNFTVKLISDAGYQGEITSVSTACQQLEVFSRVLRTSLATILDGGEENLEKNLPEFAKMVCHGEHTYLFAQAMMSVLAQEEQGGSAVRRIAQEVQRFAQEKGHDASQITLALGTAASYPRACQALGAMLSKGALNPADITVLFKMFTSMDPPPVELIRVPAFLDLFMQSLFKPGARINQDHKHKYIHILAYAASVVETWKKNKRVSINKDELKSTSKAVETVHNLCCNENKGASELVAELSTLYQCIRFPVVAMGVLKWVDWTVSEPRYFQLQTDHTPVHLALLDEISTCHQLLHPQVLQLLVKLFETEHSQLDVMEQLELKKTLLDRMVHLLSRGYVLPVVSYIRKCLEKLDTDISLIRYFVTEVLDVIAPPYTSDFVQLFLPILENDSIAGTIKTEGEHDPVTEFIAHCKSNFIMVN

Results are given in words; binding and its absence hold for the method and conditions named. Some binding calls cover weakened binding; strength is not graded here.

The experiment addresses human NELF-C, C-terminally His6-tagged (human) (UniProt Q8IXH7). Briefly: mass photometry; wild-type NELF and the 3E mutant diluted to 10 nM with buffer D (20 mM Tris-HCl pH 8.0, 150 mM NaCl, 1 mM DTT); Refeyn TwoMP; both purified.

As for “human NELF-B (from UniProt Q8WX92 49-628)”, the binding result is “binds”.
